Reference: US20260042795 (published 2026)

Test: general procedure: Fmoc solid-phase peptide synthesis; Oxyma/DIC
Conditions: whole synthesis; for isolated yield: on resin loading

Row | Substance | crude yield (run 1) [%] | crude yield (run 2) [%] | crude yield (run 3) [%] | crude yield (run 4) [%] | isolated yield (run 1) [%] | isolated yield (run 2) [%]
1 | (KL)4(KKL)2KKL | 64.9 | 53.9 | 42.2 | 46.4 |  | 
2 | fPRPGGGGNGDFEEIPEEYL |  |  |  |  | 46.3 | 38.7
